The target in test [1] is T1, recombinant human IFN-λ3 (human) (UniProt Q8IZI9).
T1 sequence: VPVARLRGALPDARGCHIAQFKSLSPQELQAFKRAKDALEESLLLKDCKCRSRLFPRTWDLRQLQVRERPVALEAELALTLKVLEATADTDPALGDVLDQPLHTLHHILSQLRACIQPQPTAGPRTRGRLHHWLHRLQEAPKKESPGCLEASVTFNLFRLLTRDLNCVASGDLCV
The test can be described thus: co-IP; Huh-7 lysate (150 mM NaCl, 50 mM Tris-HCl pH 7.4, 1% NP-40, 0.25% deoxycholate) with recombinant IFN-λ3 100 ng/ml alone; precipitated with anti-IFN-λ3 antibody and protein G beads, 4 °C; IFN-λR1 blotted; only the target purified.

In test [2] the target is T2, IFNL receptor 1 (IFNLR1) (human (endogenous in Huh-7)) (UniProt Q8IU57).
T2 sequence: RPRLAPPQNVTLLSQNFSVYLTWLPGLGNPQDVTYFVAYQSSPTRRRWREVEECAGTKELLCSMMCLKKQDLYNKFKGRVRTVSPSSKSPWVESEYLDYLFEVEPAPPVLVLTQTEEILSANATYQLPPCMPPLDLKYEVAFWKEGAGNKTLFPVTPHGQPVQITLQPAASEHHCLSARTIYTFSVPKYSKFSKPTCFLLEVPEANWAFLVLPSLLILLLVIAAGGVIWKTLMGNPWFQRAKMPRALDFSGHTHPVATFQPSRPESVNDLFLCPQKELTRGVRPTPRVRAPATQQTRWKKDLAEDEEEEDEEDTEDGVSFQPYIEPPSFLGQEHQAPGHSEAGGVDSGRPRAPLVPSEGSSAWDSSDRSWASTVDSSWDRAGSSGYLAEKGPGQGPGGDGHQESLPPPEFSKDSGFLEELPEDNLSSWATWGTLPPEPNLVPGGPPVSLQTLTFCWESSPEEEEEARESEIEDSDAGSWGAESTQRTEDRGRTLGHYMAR
The test can be described thus: co-IP; Huh-7 lysate (150 mM NaCl, 50 mM Tris-HCl pH 7.4, 1% NP-40, 0.25% deoxycholate) with recombinant IFN-λ3 100 ng/ml alone; precipitated with anti-IFN-λR1 antibody and protein G beads, 4 °C; IFN-λ3 blotted; only the binder purified.

Results are given in words; binding and its absence hold for the method and conditions named. In cells and extracts the contact can be indirect. Some binding calls cover weakened binding; strength is not graded here.

B1: IFNL receptor 1 (IFNLR1) (receptor, UniProt Q8IU57 21-520)
chain: RPRLAPPQNVTLLSQNFSVYLTWLPGLGNPQDVTYFVAYQSSPTRRRWREVEECAGTKELLCSMMCLKKQDLYNKFKGRVRTVSPSSKSPWVESEYLDYLFEVEPAPPVLVLTQTEEILSANATYQLPPCMPPLDLKYEVAFWKEGAGNKTLFPVTPHGQPVQITLQPAASEHHCLSARTIYTFSVPKYSKFSKPTCFLLEVPEANWAFLVLPSLLILLLVIAAGGVIWKTLMGNPWFQRAKMPRALDFSGHTHPVATFQPSRPESVNDLFLCPQKELTRGVRPTPRVRAPATQQTRWKKDLAEDEEEEDEEDTEDGVSFQPYIEPPSFLGQEHQAPGHSEAGGVDSGRPRAPLVPSEGSSAWDSSDRSWASTVDSSWDRAGSSGYLAEKGPGQGPGGDGHQESLPPPEFSKDSGFLEELPEDNLSSWATWGTLPPEPNLVPGGPPVSLQTLTFCWESSPEEEEEARESEIEDSDAGSWGAESTQRTEDRGRTLGHYMAR
For the molecule B1, the binding entry in test [1] is recorded as “binds”.

B2: recombinant human IFN-λ3 (ligand, UniProt Q8IZI9 22-196, looked up)
chain: VPVARLRGALPDARGCHIAQFKSLSPQELQAFKRAKDALEESLLLKDCKCRSRLFPRTWDLRQLQVRERPVALEAELALTLKVLEATADTDPALGDVLDQPLHTLHHILSQLRACIQPQPTAGPRTRGRLHHWLHRLQEAPKKESPGCLEASVTFNLFRLLTRDLNCVASGDLCV
notes: IFN-λ3 (interferon lambda 3), human, recombinant, R&D Systems; (Cys169); also called interferon lambda 3; IFNL3; source: bought: R&D Systems
As for B2, in test [2], the binding result was “binds”.

These data come from paper PMC5442324, “Zinc is a potent and specific inhibitor of IFN-λ3 signalling” (Nature Communications, 2017).
